# Assay results taken from PubChem BioAssay AID651814 (National Center for Advancing Translational Sciences (NCATS), 2012).
# Amino acid sequences for entries named in this document (tags omitted). A change or cut given only in a name is not applied to a line headed by its entry.
# UniProt Q8IUX4: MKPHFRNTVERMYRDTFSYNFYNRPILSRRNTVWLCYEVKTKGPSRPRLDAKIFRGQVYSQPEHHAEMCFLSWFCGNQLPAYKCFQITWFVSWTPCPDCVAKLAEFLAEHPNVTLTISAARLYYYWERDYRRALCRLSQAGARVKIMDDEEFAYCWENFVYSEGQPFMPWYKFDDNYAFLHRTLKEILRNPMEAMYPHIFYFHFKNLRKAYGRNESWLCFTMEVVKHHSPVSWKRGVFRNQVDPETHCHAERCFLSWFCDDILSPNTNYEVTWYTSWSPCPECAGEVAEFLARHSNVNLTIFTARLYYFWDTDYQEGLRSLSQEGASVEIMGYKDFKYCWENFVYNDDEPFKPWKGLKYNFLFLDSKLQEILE
# Out of some 2,100 compounds screened, about 590 (28%) were called active. This list was built around the results that the source calls inconclusive (neither active nor inactive); the mix of calls is not that of the screen. The call rests on the fitted dose curve; in most records, active means well fitted inhibition curve with a large enough effect; inconclusive means small, poorly fitted or top-dose-only effect; inactive means flat fitted curve, though single readings scatter. A potency beside an inconclusive call is a rough fit, not a confirmed value.
# Target: DNA dC->dU-editing enzyme APOBEC-3F (Homo sapiens) (UniProt Q8IUX4)
# Experiment: qHTS for inhibitors of Vif-A3F interactions: Cherry picks; further: nearly all actives have a fitted effect of over 70% in size;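 on max response: % of control where 0% means no effect; active compounds raise eYFP fluorescence by blocking Vif-driven A3F loss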
# Settings: HeLa A3F-eYFP + Vif (tagged APOBEC3F with the HIV-1 protein that degrades it), eYFP fluorescence, 24 h
# Source text: The recent discovery and characterization of host restriction factors, which provide a potent defense to invading retroviruses, has provided new targets for antiviral drug development. APOBEC3G (A3G) and APOBEC3F (A3F) are potent cytidine deaminases that block HIV-1 replication; HIV-1 expresses the Vif protein, which counteracts A3G and A3F by binding to them and inducing their proteasomal degradation. The Vif-A3G and Vif-A3F interactions provide two potential targets for development of small molecules which can interfere with the ability of Vif to degrade A3G or A3F. […] To identify inhibitors that can interfere with Vif mediated degradation of A3G and A3F, we have developed Hela cell lines that stably express A3G or A3F tagged with eYFP at the C-terminal end (A3G-eYFP or A3F-eYFP, respectively) and Vif. In the absence of an inhibitor, Vif induces degradation of A3G-eYFP and A3F-eYFP, and the cells are not fluorescent. In the presence of an inhibitor, it is expected that Vif will be unable to degrade A3G-eYFP and/or A3F-eYFP, resulting in an increase in yellow fluorescence. In this assay, Vif A3F was screened against the cherry picks ordered from the MLSMR. NIH Chemical Genomics Center [NCGC] NIH Molecular Libraries Probe Centers Network [MLPCN] MLPCN Grant: MH093245 Assay Submitter (PI): Vinay Pathak, National Cancer Institute
# A3F-Vif cells were harvested from T225 flask and resuspended in phenol free OPTI-MEM medium with 5% FBS. Then 5 uL of 140,000 cells/mL resuspended cells was dispensed into each well of low base Aurora COC 1,536-well plates (black walled, clear bottom) using a Multidrop Combi dispenser. After overnight culture at 37 deg C with 5% CO2, a total of 23 nL of compounds at 5 selected concentrations from the NPC or positive control (2 mM stock of MG132) in DMSO was transferred to each well of the assay plate using a pintool (Kalypsys, San Diego, CA), and the plates were further incubated at 37 deg C with 5% CO2 for 24 hours. After that, the plates were measured on Acumen Explorer (TTP Lab Tech). The fluorescence was detected by 488 nm/Ex and […].
# Potency means the concentration at half of the fitted maximal effect.
SMILES,max response,Potency
Cc1ccc(/C=C2/C(=O)NC(=O)N(CCc3ccc(F)cc3)C2=O)s1,inactive: -13.3%,–
COc1cccc(C2=CC(c3cc(Br)ccc3F)n3nnnc3N2)c1 (stereo unspecified),–,"inconclusive: 1.46 µM [inhibitor, partial curve]"
O=Cc1c(C(=O)O)n(Cc2ccc(Cl)cc2)c2ccccc12,–,active: 20.6 µM
O=c1c2ccccc2nc(/C=C/c2ccc([N+](=O)[O-])o2)n1-c1ccc(O)cc1,–,active: 12.5 µM
CC(=O)O[C@@]12CO[C@@H]1C[C@H](OC1OCC(O)C(O)C1O)[C@@]1(C)C(=O)[C@H](O)C3=C(C)[C@@H](OC(=O)[C@H](O)[C@@H](NC(=O)c4ccccc4)c4ccccc4)C[C@@](O)([C@@H](OC(=O)c4ccccc4)C12)C3(C)C (stereo partly specified),–,"inconclusive: 2.23 µM [inhibitor, full curve]"
CCN1C(=O)C(=C/C=C/c2ccco2)C(=O)N(CC)C1=S,–,"inconclusive: 22.3 µM [inhibitor, single point]"
CCN(CC)c1ccc(/C=C2\C(=O)NC(=S)N(C)C2=O)o1,–,active: 14 µM
CCCCCn1c(NC(=O)c2ccco2)c(C(=O)OCC)c2nc3ccccc3nc21,–,active: 15.8 µM
O=C(Cc1ccccc1)c1ccccn1,–,active: 17.7 µM
CN1C(=O)C(=Cc2ccc(N3CCCCC3)o2)C(=O)N(C)C1=S,–,active: 5.17 µM
CCN(CC)c1ccc2c(cc1=O)[C@@H](NC)CCc1cc(OC)c(OC)c(OC)c1-2,–,"inconclusive: 2.23 µM [inhibitor, full curve]"
Clc1ccc(-c2csc3ncnc(Sc4nnnn4C4CC4)c23)cc1,–,"inconclusive: 16.4 µM [inhibitor, single point]"
COc1cc(C2C(C#N)=C(N)Oc3cc(O)ccc32)cc(OC)c1OC (stereo unspecified),–,active: 1.98 µM
Cc1cccc(N2C(=O)NC(=O)/C(=C\C=C\c3ccco3)C2=O)c1,–,"inconclusive: 15.8 µM [inhibitor, single point]"
NC(=Nc1ccccc1)NN=Cc1c[nH]c2ccccc12,–,"inconclusive: 2.23 µM [inhibitor, full curve, poor fit]"
CCCCn1c(O)c(C(=O)/C=C/c2c[nH]c3ccccc23)c(=O)[nH]c1=O,–,active: 12.5 µM
CC(=O)OC1C2(CC3N4C(=O)C5(CO)SSC4(CC31O)C(=O)N5C)OC(C)C(C)(C)C2=O (stereo unspecified),–,active: 6.27 µM
ClCCN(CCCl)c1ccc(C=Cc2ccncn2)cc1,inactive: -17%,–
COCCCn1c(=O)/c(=C\c2ccccc2OC(F)F)s/c1=C(/C#N)C(=O)NCCOC,–,"inconclusive: 29.1 µM [inhibitor, single point]"
O=c1[nH]c(=O)n(Cc2ccccc2Cl)c(O)c1/C=C1/C=CC=N1,–,active: 9.2 µM
COc1ccc(-n2cnc3cc(C(=O)N4CCC5(CC4)OCCO5)ccc32)cc1,–,"inconclusive: 11.2 µM [inhibitor, partial curve]"
O=C1NC(=O)N(Cc2ccc(F)cc2)C(=O)/C1=C\C=C\c1ccco1,inactive: -29.5%,–
CCOc1ccc(CNC(=O)c2cccc(Nc3nc4ccccc4n4nnnc34)c2)cc1OC,–,"inconclusive: 11.6 µM [inhibitor, partial curve]"
C=CCn1c(O)c(C(C)=Nc2ccc(N(CC)CC)cc2)c(=O)[nH]c1=O,–,"inconclusive: 8.86 µM [inhibitor, partial curve]"

# 4 successive compounds already listed:
SMILES,max response,Potency
CC(=O)O[C@@]12CO[C@@H]1C[C@H](OC1OCC(O)C(O)C1O)[C@@]1(C)C(=O)[C@H](O)C3=C(C)[C@@H](OC(=O)[C@H](O)[C@@H](NC(=O)c4ccccc4)c4ccccc4)C[C@@](O)([C@@H](OC(=O)c4ccccc4)C12)C3(C)C (stereo partly specified),–,"inconclusive: 2.23 µM [inhibitor, full curve]"
CCN1C(=O)C(=C/C=C/c2ccco2)C(=O)N(CC)C1=S,–,"inconclusive: 22.3 µM [inhibitor, single point]"
CCN(CC)c1ccc(/C=C2\C(=O)NC(=S)N(C)C2=O)o1,–,active: 14 µM
CCCCCn1c(NC(=O)c2ccco2)c(C(=O)OCC)c2nc3ccccc3nc21,–,active: 15.8 µM

# Continuation:

SMILES,max response,Potency
COc1cc(/C=C/C(=O)c2c(O)n(CCc3ccccc3)c(=O)[nH]c2=O)ccc1O,–,"inconclusive: 14 µM [inhibitor, single point]"
CCS(=O)(=O)N1N=C(c2cccc(NS(C)(=O)=O)c2)CC1c1ccccc1 (stereo unspecified),–,active: 23.1 µM
CN1C(=O)C(=Cc2ccc(N3CCOCC3)o2)C(=O)N(C)C1=S,–,active: 23.1 µM
CCCCn1c(O)c(/C=C2/C=CC=N2)c(=O)[nH]c1=O,–,"inconclusive: 14 µM [inhibitor, single point]"
CCCCNC(=O)/C(C#N)=c1\s/c(=C\c2ccccc2OC(F)F)c(=O)n1CCCOC,–,active: 16.4 µM
CCN(CC)c1ccc(N=Cc2c(O)n(CCC3=CCCCC3)c(=O)[nH]c2=O)cc1,–,active: 3.66 µM
CN(C)c1ccc(C(=O)c2ccc(N(C)C)cc2)cc1,–,"inconclusive: 3.53 µM [inhibitor, partial curve]"
C=C1C(=O)OC2C1CCC(C)C1(O)C=CC(=O)C21C (stereo unspecified),–,"inconclusive: 12.5 µM [inhibitor, partial curve]"
CCN(CC)c1ccc(/C=C/[N+](=O)[O-])cc1,–,"inconclusive: 29.1 µM [inhibitor, single point]"
Cc1c(Cl)cccc1NC(=O)c1oc2ccc(S(=O)(=O)N3CCC4(CC3)OCCO4)cc2c1C,–,"inconclusive: 9.2 µM [inhibitor, partial curve]"
CC/C(=N\NC(=O)c1ccccc1O)c1c(O)n(Cc2ccccc2)c(=O)[nH]c1=O,inactive: -28.7%,–
O=[N+]([O-])c1ccc(N2CCOCC2)c2c1no[n+]2[O-],–,"inconclusive: 25 µM [inhibitor, single point]"
Cc1ccccc1-n1c(/C=C/c2ccc(N(C)C)cc2)nc2ccccc2c1=O,–,active: 3.26 µM
C/C(=C\c1ccc(N(C)C)cc1)[N+](=O)[O-],–,"inconclusive: 25 µM [inhibitor, single point]"
CC(C)N1C(=O)/C(=C/C=C/c2ccco2)C(=O)N(Cc2ccco2)C1=O,–,"inconclusive: 14 µM [inhibitor, single point]"
Nc1ccc2c3c(cccc13)-c1ccccc1-2,–,active: 4.11 µM
CCN(CC)c1ccc(/C=C2\C(=O)NC(=S)N(c3ccc(OC)cc3OC)C2=O)o1,–,"inconclusive: 23.1 µM [inhibitor, partial curve]"
N#CC1=C(N)Oc2c(c(=O)sc3ccccc23)C1c1cccnc1 (stereo unspecified),–,"inconclusive: 2.23 µM [inhibitor, full curve]"
O=c1[nH]c(O)c(/C=C2\C=Nc3ccc(OCc4ccccc4)cc32)c(=O)[nH]1,–,"inconclusive: 25.9 µM [inhibitor, single point]"
Cc1cc(N2CCCC2)ccc1C=C(C#N)C#N,–,active: 7.31 µM
Cc1cccc(-n2c(/C=C/c3ccc([N+](=O)[O-])o3)nc3ccccc3c2=O)c1,–,"inconclusive: 6.51 µM [inhibitor, single point]"
COCCCNC(=O)c1c(NC(=O)c2ccco2)n(Cc2ccccc2)c2nc3ccccc3nc12,–,"inconclusive: 15.8 µM [inhibitor, partial curve]"
COc1ccc2nc(NC(=O)c3nc(S(=O)(=O)Cc4cccc(C)c4)ncc3Cl)sc2c1,–,"inconclusive: 16.4 µM [inhibitor, single point]"
COc1ccc(-c2ccc(OC)c(OC)c2OC)cc1,–,"inconclusive: 1.77 µM [inhibitor, full curve]"

SMILES,max response,Potency
Cc1c2ccncc2c(C)c2c1[nH]c1ccccc12,–,"inconclusive: 18.4 µM [inhibitor, single point]"
O=C1/C(=C/c2ccc3c(c2)OCO3)SC(=S)N1CCC(=O)N(CCO)c1ccccc1,–,"inconclusive: 29.1 µM [inhibitor, single point]"
COc1ccc(-n2c(/C=C/c3ccc(O)c(OC)c3)nc3ccccc3c2=O)cc1,–,"inconclusive: 18.4 µM [inhibitor, single point]"
Cc1cc(C)cc(N2C(=O)NC(=O)/C(=C\C=C\c3ccco3)C2=O)c1,–,"inconclusive: 15.8 µM [inhibitor, single point]"
O=c1[nH]c(CN2CC=C(c3ccccc3)CC2)nc2scc(-c3ccccc3)c12,–,active: 18.4 µM
O=c1c2ccccc2nc(/C=C/c2ccccc2O)n1-c1ccc(Br)cc1,–,"inconclusive: 20.6 µM [inhibitor, single point]"
COc1cc2c(cc1O)[C@@H]1Cc3ccc(OC)c(O)c3CN1CC2,–,"inconclusive: 11.2 µM [inhibitor, partial curve]"
Cc1ccccc1-n1c(O)c(/C=C/C=Nc2ccccc2)c(=O)[nH]c1=O,–,"inconclusive: 5.8 µM [inhibitor, single point]"
COc1ccccc1-n1c(/C=C/c2ccc(O)cc2)nc2ccccc2c1=O,inactive: -0.327%,–
O=c1c2ccccc2nc(/C=C/c2ccc(F)cc2)n1-c1ccccc1O,–,"inconclusive: 29.1 µM [inhibitor, single point]"
COC(=O)C1=C(C)N(Cc2ccco2)C(=O)/C1=C\c1ccc(N(C)C)cc1,–,active: 13 µM
O=c1nc(/C=C/c2ccc(Cl)cc2Cl)cc(C(F)(F)F)[nH]1,inactive: -25.1%,–
Cc1cccc(-n2c(/C=C/c3c(C)[nH]c4ccccc34)nc3ccccc3c2=O)c1,–,active: 20.6 µM
Cn1cccc1/C=C1\C(=O)NC(=O)N(Cc2ccccc2Cl)C1=O,–,"inconclusive: 18.4 µM [inhibitor, partial curve]"
CC(=O)Nc1cccc(-c2ccnc3c2CC(C(=O)NCc2ccco2)O3)c1 (stereo unspecified),–,"inconclusive: 2.5 µM [inhibitor, full curve, poor fit]"
CC(C)CCCn1c(O)c(/C=C2/C=CC=N2)c(=O)[nH]c1=O,–,active: 18.4 µM
Cc1ccc(N2C(=O)NC(=O)/C(=C\C=C\c3ccco3)C2=O)cc1C,inactive: -16.6%,–
CCN1C(=O)/C(=C/c2ccc(N(CC)CC)cc2OC)C(=O)NC1=S,–,"inconclusive: 29.1 µM [inhibitor, single point]"
O=C1CN=C(c2cccc(Br)c2)c2cc(Br)ccc2N1,–,"inconclusive: 17.7 µM [inhibitor, single point]"
CCCCn1c(N)c(N(CC(C)C)C(=O)c2cc(Br)c(Br)s2)c(=O)[nH]c1=O,–,"inconclusive: 23.1 µM [inhibitor, single point]"
Cc1cc(N(CCCl)CCCl)ccc1C=Cc1ccncn1,–,"inconclusive: 23.1 µM [inhibitor, single point]"
O=C1NC(=O)N(Cc2ccc(F)cc2)C(=O)/C1=C\c1ccoc1,inactive: -24.2%,–
Cc1cccc(-n2c(O)c(/C=C/C=Nc3ccccc3)c(=O)[nH]c2=O)c1,–,"inconclusive: 4.11 µM [inhibitor, single point]"
